Results on 2 compounds are retold here after patent publication EP1073451B1, “D[…] TREATING ISCHEMIA” (University of Kentucky Research Foundation, priority 1998, dated 2002).

The data set has as its system focal middle cerebral arterial occlusion (MCAO) ischemia. Particulars: laser-Doppler flowmetry; for time for cerebral blood flow to return to baseline levels after cessation of ischemia: 4 mg/kg i.p. x4 prior to 1 h MCAO; for reduction in cerebral blood flow: upon induction of ischemia by MCAO, sustained for 1 h, same in control animals.

On to `CC(C)C[C@@H](NC(=O)[C@H](Cc1ccccc1)NC(=O)CNC(=O)[C@@H](C)NC(=O)[C@@H](N)Cc1ccc(O)cc1)C(=O)O` [DADLE, Tyr-D-Ala-Gly-Phe-D-Leu-enkephalin], for which the “time for cerebral blood flow to return to baseline levels after cessation of ischemia” value is at most 0.5 h and the “reduction in cerebral blood flow” value is on record as 20%.
The corresponding values for “Tyr-Ala-Phe-Asp-Val-Val-Gly-NH2 [deltorphin]” are at most 0.5 h and 25%.
